Measured values published in PubChem BioAssay AID1347075 (National Center for Advancing Translational Sciences (NCATS), 2019).
About 5,500 (1.4%) of roughly 400,000 compounds were called active. Inconclusive results, whose numbers are uncertain, are shown with a selection of clear calls. Calls follow the shape of the dose curve; as a rule, active = well fitted cell-killing curve with a large enough effect; inconclusive = small, poorly fitted or top-dose-only effect, or effect the other way; inactive = flat fitted curve, though single readings scatter. Potencies of inconclusive entries are doubtful fits and often do not repeat.

Assay: qHTS assay for MDR1-selective chemotherapeutics: Primary screen using the parental adenocarcinoma cell KB-3-1; also: nearly all actives have a fitted effect of over 60% in size
Details: KB-3-1 viability, CellTiter-Glo ATP luminescence, 72 h; activity change, negative = cytotoxic: at 46.1 µM (top of the series)
Outline: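 72 h, 37 °C compound treatment of KB-3-1 parental cells; CellTiter-Glo added, 10 min, luminescence read. Data corrected against DMSO-only plates and normalized before curve fitting.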
% is scaled to controls: 0 for no effect and ±100 for the full control effect; potency is read from the fitted curve at half-maximal effect.

SMILES	Potency	activity change, negative = cytotoxic
CC(C)N(C)CCOC(=O)/C=C/c1ccccc1	inconclusive: 0.184 µM [cytotoxic, full curve]	–
CCCCN(CC)C(=O)Cc1ccccc1OC	inactive	–
COc1ccc(S(=O)(=O)N(CC(=O)Nc2cccc(C)c2)c2ccc(C)cc2)cc1OC	inactive	–
O=C(NC1=C(Nc2ccc(F)cc2)C(=O)c2ccccc2C1=O)c1ccc(Cl)cc1	inconclusive: 29.1 µM [cytotoxic, single point]	–
CCOC(=O)C[C@H]1c2ccccc2S(=O)(=O)N1Cc1ccc(Cl)cc1	inconclusive: 25.9 µM [cytotoxic, single point]	–
CCN1CCN(c2nc3ccccn3c(=O)c2/C=C(\C#N)S(=O)(=O)c2ccccc2)CC1	inconclusive: 32.6 µM [rising, partial curve, poor fit]	–
COc1ccc(/C=C/c2nc3cc(-c4ccccc4)ccc3o2)cc1O	inconclusive: 29.1 µM [cytotoxic, single point]	–
CCOC(=O)C1=C(CN(CC)Cc2ccccc2)NC(=O)NC1c1ccc(OC(C)C)cc1 (centres undefined)	inconclusive: 25.9 µM [cytotoxic, single point]	–
CCCCN(CC)Cc1ccc(CNC(=S)Nc2cccc(F)c2)o1	inactive	–
Cc1csc(N(C(=O)Cc2ccccc2F)c2ccccc2)n1	inactive	–
CSc1ccc(S(=O)(=O)Nc2ccc3c4c(cccc24)CC3)cc1	active: 18.4 µM	–
Cc1ccc2nc(/C(C#N)=C\c3ccc(Oc4ccc(C(F)(F)F)cc4[N+](=O)[O-])cc3)[nH]c2c1	inconclusive: 16.4 µM [cytotoxic, single point]	–
O=C(Nc1cccc(C(F)(F)F)c1)c1cncs1	inconclusive: 0.517 µM [cytotoxic, full curve, poor fit]	–
CCCc1cc(=O)[nH]c(SCC(=O)c2c(N)n(C3CC3)c(=O)[nH]c2=O)n1	active: 16.4 µM	–
COCC(C)NC(=O)c1cc(S(=O)(=O)N2CCCCC2)ccc1N1CCOCC1 (centres undefined)	inconclusive: 0.231 µM [rising, full curve]	–
O=C(CCCCn1c(=S)[nH]c2ccsc2c1=O)NCc1ccc2c(c1)OCO2	inconclusive: 29.1 µM [cytotoxic, single point]	–
CCN(CC)CCn1c(NS(=O)(=O)c2ccc(C)cc2)nc2ccccc21	inactive	–
CCCC(=O)N1CCCC1(C)C(=O)Nc1cc(OC)c(OC)c(OC)c1 (centres undefined)	inactive	–
C[C@@H]1CN([C@H](C)CO)S(=O)(=O)c2ccc(Br)cc2O[C@@H]1CN(C)Cc1ccc(-c2ccccc2)cc1	inactive	–
Cn1c(SCC(=O)N2CCN(c3ccccc3)CC2)nnc1-c1c[nH]c2ccccc12	inactive	–
CCOC(=O)CC(NC(=O)CCc1c(C)nc2ncnn2c1C)c1ccc(OC(C)C)cc1 (centres undefined)	inconclusive: 14.6 µM [rising, partial curve, poor fit]	–
COc1ccc(C(=O)Cn2c(Br)nc3c2c(=O)n(C)c(=O)n3C)cc1OC	inconclusive: 29.1 µM [cytotoxic, single point]	–
O=C(O)c1ccc2c(c1)S(=O)(=O)c1cc(N3CCN(c4ncccn4)CC3)ccc1C2=O	inconclusive: 29.1 µM [rising, single point]	–

By substructure, those above with two or more sulfur atoms
SMILES	Potency	activity change, negative = cytotoxic
CSc1ccc(S(=O)(=O)Nc2ccc3c4c(cccc24)CC3)cc1	active: 18.4 µM	–
O=C(CCCCn1c(=S)[nH]c2ccsc2c1=O)NCc1ccc2c(c1)OCO2	inconclusive: 29.1 µM [cytotoxic, single point]	–

Further results:

SMILES	Potency	activity change, negative = cytotoxic
CN1CCN(c2cc(N3CCc4ccccc4C3)c(F)cc2[N+](=O)[O-])CC1	inconclusive: 20.6 µM [cytotoxic, single point]	–
Cc1ccc(CN2CC(N3CCN(C)CC3)CS2(=O)=O)cc1 (centres undefined)	inactive	–
COc1cccc(CN(C)C(=O)CNC(=O)c2ccc(-c3ccccc3)cc2)c1OC	inactive	–
c1ccc2ccccc2c1	inconclusive: 0.411 µM [rising, full curve]	–
Oc1c(N=NC(=S)Nc2ccccc2F)c2ccccc2n1Cc1ccccc1	inconclusive: 16.4 µM [cytotoxic, partial curve]	–
CC(=O)c1ccc(NC(=O)c2cc(CC(C)C)nc3ccccc23)cc1	inactive	–
CCCC1(C(=O)OCC)NC(c2ccc(OC)cc2OC)C2C(=O)N(c3ccccc3)C(=O)C21 (centres undefined)	inactive	–
O=C(NCc1ccccc1)c1cc(C2CCCCN2C(=O)c2ccc3c(c2)CCO3)on1 (centres undefined)	inactive	–
CCCCNC(=O)C[C@@H]1C[C@@]2(C(=O)OC)CCCCC=C2N(CCC2=CCCCC2)C1=O	inactive	–
Cc1cc(/C=N\NC(=O)CC(=O)NC2CCCCC2)c(C)n1-c1cccc(Cl)c1Cl	inconclusive: 25.9 µM [cytotoxic, single point]	–
O=C(NC(c1ccc(-c2ccccc2)cc1)c1cnccn1)C1CCN(CCOc2ccc(F)cc2)CC1 (centres undefined)	inconclusive: 29.1 µM [cytotoxic, partial curve, poor fit]	–
O=C(CCCOc1ccccc1)Nc1cccnc1	inconclusive: 18.4 µM [rising, partial curve, poor fit]	–
CN(Cc1cnc2nc(N)nc(N)c2n1)c1ccc(C(=O)NC(CCC(=O)O)C(=O)O)cc1 (centres undefined)	active: 0.0052 µM	–
CC(=O)c1ccc(N2CCN(C(=O)c3ccccc3SCC(=O)NCc3ccco3)CC2)c(F)c1	inactive	–
CC(C)c1cc(NCCOCCO)n2c(nc3ccccc32)c1C#N	inactive	–
COc1cc(CCNC(=O)c2cnn3ccccc23)cc(OC)c1OC	inconclusive: 29.1 µM [cytotoxic, single point]	–
O=C(Cc1cccs1)Nc1nc(-c2ccc(F)c(F)c2)cs1	inconclusive: 14.6 µM [cytotoxic, partial curve]	–
O=C1CCn2nc(-c3ccc(Cl)cc3)cc2N1	active: 1.84 µM	–
CCOC(=O)c1cc(-c2ccc(F)cc2)n(CCC(=O)NC2CCCCC2)c1C	inactive	–
CCCCc1oc2ccccc2c1C(=O)c1cc(I)c(OCCN(CC)CC)c(I)c1	inactive	–
CCc1ccccc1NC(=O)C1(S(=O)(=O)c2ccc(C)cc2)CC1	inactive	–
OC1COC(OCC2OC(OCc3ccccc3)C(O)C(O)C2O)C(O)C1O (centres undefined)	inconclusive: 23.1 µM [cytotoxic, single point]	–
Nc1nc2ccccc2n1/N=C/c1ccc(-c2ccccc2)o1	inconclusive: 0.164 µM [rising, full curve, poor fit]	–

SMILES	Potency	activity change, negative = cytotoxic
Clc1ccc(Cn2ncc3c(N4CCN(c5ccccc5)CC4)ncnc32)cc1	inconclusive: 29.1 µM [cytotoxic, single point]	–
O=C(c1ccccc1)N1CCN(c2ccc([N+](=O)[O-])c(NCc3cccnc3)c2)CC1	inconclusive: 10.3 µM [rising, partial curve]	–
O=C(Nc1ccc(N2CCN(C(=O)c3ccccc3)CC2)c(Cl)c1)c1ccco1	inconclusive: 23.1 µM [cytotoxic, single point]	–
Cc1nc(SCC(=O)NC2CCCC2)c2c(C)c(C)sc2n1	inactive	–
C=CCNC(=O)NC(=O)COC(=O)c1nc2nccc(C)n2n1	–	inconclusive: -3.34%
COc1nc(N(C)S(=O)(=O)c2ccc(C)cc2)nc(C)c1Cl	inconclusive: 10.3 µM [cytotoxic, partial curve]	–
CCN(CC)c1ccc(/C=N/NC(=O)c2ccco2)c(O)c1	inconclusive: 4.61 µM [cytotoxic, full curve, poor fit]	–
COc1ccc2c(c1)CC/C(=C\c1ccc(OC)c(Cn3nc(C)cc3C)c1)C2=O	inconclusive: 29.1 µM [cytotoxic, single point]	–
C=CCSC(=S)NC1CCS(=O)(=O)C1 (centres undefined)	inconclusive: 18.4 µM [cytotoxic, single point]	–
Cc1ccc(Nc2nnc(SCC(=O)Nc3cccc(S(=O)(=O)NC4=NCCCCC4)c3)s2)c(C)c1	inconclusive: 29.1 µM [cytotoxic, single point]	–
CCCCCCN1C[C@@H](n2cc(COC(=O)c3ccccc3)nn2)[C@H](O)C[C@@H]1c1ccc(OC)cc1	inconclusive: 16.4 µM [cytotoxic, single point]	–
CC(C)C[C@@H](COCc1ccc(Cl)cc1)N1CCN(C(=O)c2ccc(C(F)(F)F)cc2)CCC1=O	inconclusive: 18.4 µM [cytotoxic, single point]	–
Cc1ccc(S(C)(=O)=O)cc1C(=O)Nc1cccc(S(=O)(=O)N2CCCCCC2)c1	inconclusive: 20.6 µM [cytotoxic, single point]	–
CC(C)CCN(C(=O)c1csnn1)C(C(=O)NC1CCCCC1)c1ccc(F)cc1 (centres undefined)	inconclusive: 16.4 µM [cytotoxic, single point]	–
CCN1C(=O)CS/C1=N\S(=O)(=O)c1ccc(Cl)cc1	inactive	–
COc1ccc(-c2cc(C(F)(F)F)n3nc(C(=O)N4CCCCC4)cc3n2)cc1OC	inconclusive: 29.1 µM [cytotoxic, single point]	–
O=C1Nc2c(c(=O)[nH]c(=O)n2-c2ccccc2)C(C(F)(F)F)(C(F)(F)F)N1	inconclusive: 29.1 µM [cytotoxic, single point]	–
COc1ccc(/C=C/CN2CCCC(CO)(Cc3cccc(Cl)c3)C2)cc1 (centres undefined)	inconclusive: 16.4 µM [cytotoxic, single point]	–
CCOC(=O)c1cc2c(ccn2C)n1CC(=O)N(Cc1ccccc1)c1ccccc1	inconclusive: 23.1 µM [cytotoxic, single point]	–
CCOC(=O)N1CCC(Nc2c(NCCCN(CC)Cc3ccccc3)c(=O)c2=O)CC1	inactive	–
Cc1oc(-c2ccccc2Cl)nc1Cn1cccc1C1=NC(c2ccccc2)CO1 (centres undefined)	inconclusive: 29.1 µM [cytotoxic, single point]	–
FC(F)Oc1ccc(NC(=S)NCc2ccco2)cc1Cl	inconclusive: 0.082 µM [cytotoxic, full curve]	–
Cc1ccccc1-c1cc(=O)c2c(O)cccc2o1	inconclusive: 29.1 µM [cytotoxic, single point]	–
